Results are given in words; binding and its absence hold for the method and conditions named. Some binding calls cover weakened binding; strength is not graded here.
T1: FGF23 C-terminal tail peptide (FGF23^C-tail) (human)
T1 sequence (peptide): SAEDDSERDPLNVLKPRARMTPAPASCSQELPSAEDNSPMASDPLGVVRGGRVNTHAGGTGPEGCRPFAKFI

B1: Soluble human α-Klotho ectodomain (αKlotho^ecto) (receptor)
chain: EPGDGAQTWARVSRPPAPEAAGLFQGTFPDGFLWAVGSAAYQTEGGWQQHGKGASIWDTFTHHPLAPPGDSRNASLPLGAPSPLQPATGDVASDSYNNVFRDTEALRELGVTHYRFSISWARVLPNGSAGVPNREGLRYYRRLLERLRELGVQPVVTLYHWDLPQRLQDAYGGWANRALADHFRDYAELCFRHFGGQVKYWITIDNPYVVAWHGYATGRLAPGIRGSPRLGYLVAHNLLLAHAKVWHLYNTSFRPTQGGQVSIALSSHWINPRRMTDHSIKECQKSLDFVLGWFAKPVFIDGDYPESMKNNLSSILPDFTESEKKFIKGTADFFALCFGPTLSFQLLDPHMKFRQLESPNLRQLLSWIDLEFNHPQIFIVENGWFVSGTTKRDDAKYMYYLKKFIMETLKAIKLDGVDVIGYTAWSLMDGFEWHRGYSIRRGLFYVDFLSQDKMLLPKSSALFYQKLIEKNGFPPLPENQPLEGTFPCDFAWGVVDNYIQVDTTLSQFTDLNVYLWDVHHSKRLIKVDGVVTKKRKSYCVDFAAIQPQIALLQEMHVTHFRFSLDWALILPLGNQSQVNHTILQYYRCMASELVRVNITPVVALWQPMAPNQGLPRLLARQGAWENPYTALAFAEYARLCFQELGHHVKLWITMNEPYTRNMTYSAGHNLLKAHALAWHVYNEKFRHAQNGKISIALQADWIEPACPFSQKDKEVAERVLEFDIGWLAEPIFGSGDYPWVMRDWLNQRNNFLLPYFTEDEKKLIQGTFDFLALSHYTTILVDSEKEDPIKYNDYLEVQEMTDITWLNSPSQVAVVPWGLRKVLNWLKFKYGDLPMYIISNGIDDGLHAEDDQLRVYYMQNYINEALKAHILDGINLCGYFAYSFNDRTAPRFGLYRYAADQFEPKASMKHYRKIIDSNGFPGPETLERFCPEEFTVCTECSFFHTRKS
notes: also called wild-type αKlotho^ecto; soluble αKlotho
B2: αKlotho^ecto/ΔRBA (soluble αKlotho ectodomain lacking L544 to T565 of the KL2 β1α1 loop) (receptor)
chain: EPGDGAQTWARVSRPPAPEAAGLFQGTFPDGFLWAVGSAAYQTEGGWQQHGKGASIWDTFTHHPLAPPGDSRNASLPLGAPSPLQPATGDVASDSYNNVFRDTEALRELGVTHYRFSISWARVLPNGSAGVPNREGLRYYRRLLERLRELGVQPVVTLYHWDLPQRLQDAYGGWANRALADHFRDYAELCFRHFGGQVKYWITIDNPYVVAWHGYATGRLAPGIRGSPRLGYLVAHNLLLAHAKVWHLYNTSFRPTQGGQVSIALSSHWINPRRMTDHSIKECQKSLDFVLGWFAKPVFIDGDYPESMKNNLSSILPDFTESEKKFIKGTADFFALCFGPTLSFQLLDPHMKFRQLESPNLRQLLSWIDLEFNHPQIFIVENGWFVSGTTKRDDAKYMYYLKKFIMETLKAIKLDGVDVIGYTAWSLMDGFEWHRGYSIRRGLFYVDFLSQDKMLLPKSSALFYQKLIEKNGFPPLPENQPLEGTFPCDFAWGVVDNYIQVDTTLSQFTDKKRKSYCVDFAAIQPQIALLQEMHVTHFRFSLDWALILPLGNQSQVNHTILQYYRCMASELVRVNITPVVALWQPMAPNQGLPRLLARQGAWENPYTALAFAEYARLCFQELGHHVKLWITMNEPYTRNMTYSAGHNLLKAHALAWHVYNEKFRHAQNGKISIALQADWIEPACPFSQKDKEVAERVLEFDIGWLAEPIFGSGDYPWVMRDWLNQRNNFLLPYFTEDEKKLIQGTFDFLALSHYTTILVDSEKEDPIKYNDYLEVQEMTDITWLNSPSQVAVVPWGLRKVLNWLKFKYGDLPMYIISNGIDDGLHAEDDQLRVYYMQNYINEALKAHILDGINLCGYFAYSFNDRTAPRFGLYRYAADQFEPKASMKHYRKIIDSNGFPGPETLERFCPEEFTVCTECSFFHTRKS
notes: the mature protein is E34 to S959; Expressed and purified like the wild type (pEF1α/myc-His A); also called α-Klotho^ecto/deltaRBA; αKlotho^ecto/ΔRBA mutant

Molecular target: T1, FGF23 C-terminal tail peptide (FGF23^C-tail) (human)
Experiment: fluorescence dye-based thermal shift assay, 1:1 mixture

Binder | binding
B1 | binds
B2 | binds

— patent publication US20210054355A1 (NEW YORK UNIVERSITY, published 2021)
